# Test results published in PMC5996148.
# This is one part of the list.
# Assays:
# Test in all cases: protein microarray (ProtoArray v5.0), streptavidin-Alexa Fluor 647
# Conditions in all cases: 3'-biotin; 20 mM Tris (pH 7.5), 5 mM MgCl2, 100 mM KCl, 0.1% Tween-20, A/T-rich and random oligonucleotide blockers; temperature not stated; high values mean tight binding
# [1] = system: HTR5A (human)
# [2] = system: HVCN1 (human)
# [3] = system: HYAL1 (human)
# [4] = system: HYPK (human)
# [5] = system: Heat shock protein HSP 90-alpha (human)
# [6] = system: Hematopoietic cell signal transducer (human)
# [7] = system: Hemoglobin subunit mu (human)
# [8] = system: Hexaprenyldihydroxybenzoate methyltransferase, mitochondrial (human)
# [9] = system: Hexokinase-3 (human)
# [10] = system: High affinity cAMP-specific and IBMX-insensitive 3prime,5prime-cyclic phosphodiesterase 8A (human)
# [11] = system: Histidine ammonia-lyase (human)
# [12] = system: Histone chaperone ASF1B (human)
# [13] = system: Histone deacetylase 10 (human)
# [14] = system: Histone deacetylase 6 (human)
# [15] = system: Homeobox protein Hox-A9 (human)
# [16] = system: Homeobox protein Hox-B6 (human)
# [17] = system: Homeobox protein Meis1 (human)
# [18] = system: Homeobox protein PKNOX2 (human)
# [19] = system: Hsp90 co-chaperone Cdc37-like 1 (human)
# [20] = system: Huntingtin-interacting protein 1-related protein (human)
sequence,measurement,setting,value
GGGAGGCTGAGGCAGG [G4-1 biotinylated (PQS2)],binding signal,[1],-0.321 z-score
same,binding signal,[2],-0.328 z-score
same,binding signal,[3],-0.324 z-score
same,binding signal,[4],-0.349 z-score
same,binding signal,[5],-0.292 z-score
same,binding signal,[6],-0.333 z-score
same,binding signal,[7],-0.372 z-score
same,binding signal,[8],-0.373 z-score
same,binding signal,[9],-0.352 z-score
same,binding signal,[10],-0.315 z-score
same,binding signal,[11],-0.305 z-score
same,binding signal,[12],-0.317 z-score
same,binding signal,[13],-0.346 z-score
same,binding signal,[14],-0.351 z-score
same,binding signal,[15],-0.31 z-score
same,binding signal,[16],-0.338 z-score
same,binding signal,[17],-0.345 z-score
same,binding signal,[18],-0.319 z-score
same,binding signal,[19],-0.358 z-score
same,binding signal,[20],-0.339 z-score

# In another format: results already given.
sequence | measurement | setting | value
GGGAGGCTGAGGCAGG [G4-1 biotinylated (PQS2)] | binding signal | [7] | -0.372 z-score
same | binding signal | [15] | -0.31 z-score
